In article PMC13096421 one finds binding data, which are given here for 1 molecule.

The chains behind the UniProt entries cited, without tags or fusion partners. Residues count along the entry.
UniProt Q00960, residues 27-1482: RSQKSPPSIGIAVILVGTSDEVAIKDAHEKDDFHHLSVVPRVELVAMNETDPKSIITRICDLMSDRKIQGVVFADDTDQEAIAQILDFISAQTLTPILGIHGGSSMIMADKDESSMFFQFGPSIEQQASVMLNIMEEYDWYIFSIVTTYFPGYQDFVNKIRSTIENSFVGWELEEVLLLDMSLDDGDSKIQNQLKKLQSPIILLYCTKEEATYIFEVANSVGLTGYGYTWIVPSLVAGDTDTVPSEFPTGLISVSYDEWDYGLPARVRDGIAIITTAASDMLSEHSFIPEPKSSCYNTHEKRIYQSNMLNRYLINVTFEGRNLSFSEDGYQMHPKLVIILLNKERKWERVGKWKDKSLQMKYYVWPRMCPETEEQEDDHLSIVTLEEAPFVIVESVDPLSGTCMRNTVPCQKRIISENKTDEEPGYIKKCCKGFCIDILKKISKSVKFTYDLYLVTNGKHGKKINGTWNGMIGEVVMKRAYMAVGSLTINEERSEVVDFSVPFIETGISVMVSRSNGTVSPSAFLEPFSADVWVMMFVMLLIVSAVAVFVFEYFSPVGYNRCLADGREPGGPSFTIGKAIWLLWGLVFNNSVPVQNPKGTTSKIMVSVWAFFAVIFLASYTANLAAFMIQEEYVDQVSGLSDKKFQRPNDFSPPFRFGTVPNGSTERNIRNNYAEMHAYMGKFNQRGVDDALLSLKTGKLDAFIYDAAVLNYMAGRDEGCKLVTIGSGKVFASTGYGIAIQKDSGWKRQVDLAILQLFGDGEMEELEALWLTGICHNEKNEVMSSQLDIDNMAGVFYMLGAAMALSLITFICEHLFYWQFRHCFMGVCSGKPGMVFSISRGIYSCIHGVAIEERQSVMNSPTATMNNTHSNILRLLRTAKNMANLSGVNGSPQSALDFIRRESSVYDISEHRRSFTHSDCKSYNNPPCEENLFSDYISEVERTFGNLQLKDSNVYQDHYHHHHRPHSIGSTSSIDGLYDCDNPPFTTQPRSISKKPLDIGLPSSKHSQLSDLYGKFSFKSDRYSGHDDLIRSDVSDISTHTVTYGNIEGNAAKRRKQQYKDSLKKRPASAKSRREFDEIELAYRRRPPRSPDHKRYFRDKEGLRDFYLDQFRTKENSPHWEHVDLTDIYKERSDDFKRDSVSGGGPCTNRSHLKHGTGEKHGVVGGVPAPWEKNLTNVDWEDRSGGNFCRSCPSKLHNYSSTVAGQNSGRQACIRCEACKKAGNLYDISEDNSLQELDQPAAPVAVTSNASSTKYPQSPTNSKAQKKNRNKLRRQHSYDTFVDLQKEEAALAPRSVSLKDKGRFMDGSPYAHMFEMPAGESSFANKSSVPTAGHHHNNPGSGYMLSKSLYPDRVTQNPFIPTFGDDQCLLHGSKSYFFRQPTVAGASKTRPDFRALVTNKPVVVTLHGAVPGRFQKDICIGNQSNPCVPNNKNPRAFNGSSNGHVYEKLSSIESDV

No constants are given. Whether binding was seen depends on the method and setting. In cells and extracts the contact can be indirect. Here binding means that the protein was enriched with, or labelled near, the bait; the list need not be complete.

This experiment concerns the target Grin2b (rat (endogenous in hippocampus)) (UniProt Q00960). The experiment in a line: affinity purification with mass spectrometry; endogenous baits immunoprecipitated with antibodies crosslinked to Protein A or G beads from hippocampus homogenates of rats injected with saline or PCP (1.25 mg/kg, 26 min), mixed 1:1 with 15N rat brain homogenate; 4 mM HEPES pH 7, 200 mM NaCl, 0.5% Triton, 0.5% NP-40, 0.01% sodium deoxycholate; 4 °C; normal serum controls; interactors called by SAINT at 5% FDR; SILAM quantitation of PCP against saline.

B1: Kcnab2 (protein, UniProt P62483 1-367)
chain: MYPESTTGSPARLSLRQTGSPGMIYSTRYGSPKRQLQFYRNLGKSGLRVSCLGLGTWVTFGGQITDEMAEHLMTLAYDNGINLFDTAEVYAAGKAEVVLGNIIKKKGWRRSSLVITTKIFWGGKAETERGLSRKHIIEGLKASLERLQLEYVDVVFANRPDPNTPMEETVRAMTHVINQGMAMYWGTSRWSSMEIMEAYSVARQFNLIPPICEQAEYHMFQREKVEVQLPELFHKIGVGAMTWSPLACGIVSGKYDSGIPPYSRASLKGYQWLKDKILSEEGRRQQAKLKELQAIAERLGCTLPQLAIAWCLRNEGVSSVLLGASNAEQLMENIGAIQVLPKLSSSIVHEIDSILGNKPYSKKDYRS
Regarding B1, the binding entry is recorded as “binds”.
